Measured values published in patent publication US20250163125A1.
These are yes or no findings as the source states them, for the method shown. Some entries that bind do so weakly or less than the wild type.

The chains behind the UniProt entries cited, without tags or fusion partners. Where a name states a change or a piece, a line headed by the entry shows the natural chain unless it says otherwise.
UniProt P06729: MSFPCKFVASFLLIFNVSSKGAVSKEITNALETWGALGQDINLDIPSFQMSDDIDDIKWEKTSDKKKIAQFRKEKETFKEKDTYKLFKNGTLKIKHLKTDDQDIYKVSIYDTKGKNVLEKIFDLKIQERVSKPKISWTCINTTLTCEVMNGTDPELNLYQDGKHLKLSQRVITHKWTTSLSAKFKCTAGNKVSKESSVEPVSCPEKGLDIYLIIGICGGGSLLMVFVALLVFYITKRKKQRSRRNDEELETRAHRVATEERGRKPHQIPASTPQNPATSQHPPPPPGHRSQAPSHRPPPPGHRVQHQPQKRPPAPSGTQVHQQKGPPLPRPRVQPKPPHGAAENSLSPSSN
UniProt P19256: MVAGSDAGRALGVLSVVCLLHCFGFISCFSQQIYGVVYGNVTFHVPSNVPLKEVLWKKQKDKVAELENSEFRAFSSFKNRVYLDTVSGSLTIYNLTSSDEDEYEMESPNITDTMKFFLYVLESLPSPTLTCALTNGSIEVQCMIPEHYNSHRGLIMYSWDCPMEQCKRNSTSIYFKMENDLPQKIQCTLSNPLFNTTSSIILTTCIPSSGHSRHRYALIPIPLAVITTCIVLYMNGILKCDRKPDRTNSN

Target: recombinant human CD2 (human) (UniProt P06729)
Test: flow cytometry on yeast displaying LFA3

binding: binds
Substance: yeast-displayed N-terminal Ig-domain of human LFA3 (residues 1-93) (from UniProt P19256 29-121) (ligand)
